Counter-ions that a name gives are not always drawn. The list shows a part of the results. Hit calls seldom repeat between salt and free forms of one compound.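 In K562 cells expressing nanoluciferase-fused kinases, luminescence was recorded at 4 h intervals between 2 and 18 h, normalized as percent of control with DMSO at 100% and a positive control at 0%. A significant (2 sigma) signal drop marks a time point as decreased. The authors' rule for a hit is not shown and takes in more than the number of time points.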
Tests used:
Experiment in all cases: number of time points (of 5) at which kinase-Nluc abundance scored as decreased, DMSO-normalised (count); higher = more persistent destabilization
Details in all cases: K562; 2-18 h
PRKCA = PRKCA (UniProt P17252)
PTK2 = PTK2 (UniProt Q05397)
PTK2B = PTK2B (UniProt Q14289)
RAF1 = RAF1 (UniProt P04049)
[1] = molecular target: RAF1_S257L (clone: RAF1_mut) (UniProt P04049)
RET = RET (UniProt P07949)
[2] = molecular target: RET_M918T (clone: RET_mut) (UniProt P07949)
RIOK1 = RIOK1 (UniProt Q9BRS2)
RIPK1 = RIPK1 (UniProt Q13546)
RIPK2 = RIPK2 (UniProt O43353)
ROR2 = ROR2 (UniProt Q01974)
RPS6KA1 = RPS6KA1 (UniProt Q15418)
SPHK1 = SPHK1 (UniProt Q9NYA1)
SRC = SRC (UniProt P12931)
STK24 = STK24 (UniProt Q9Y6E0)
STK38 = STK38 (UniProt Q15208)
SYK = SYK (UniProt P43405)
TEC = TEC (UniProt P42680)
TYK2 = TYK2 (UniProt P29597)
ULK3 = ULK3 (UniProt Q6PHR2)

By UniProt entry, the sequences of proteins in these tests, tags left out. Where a name states a change or a piece, a line headed by the entry shows the natural chain unless it says otherwise.
UniProt Q9BRS2: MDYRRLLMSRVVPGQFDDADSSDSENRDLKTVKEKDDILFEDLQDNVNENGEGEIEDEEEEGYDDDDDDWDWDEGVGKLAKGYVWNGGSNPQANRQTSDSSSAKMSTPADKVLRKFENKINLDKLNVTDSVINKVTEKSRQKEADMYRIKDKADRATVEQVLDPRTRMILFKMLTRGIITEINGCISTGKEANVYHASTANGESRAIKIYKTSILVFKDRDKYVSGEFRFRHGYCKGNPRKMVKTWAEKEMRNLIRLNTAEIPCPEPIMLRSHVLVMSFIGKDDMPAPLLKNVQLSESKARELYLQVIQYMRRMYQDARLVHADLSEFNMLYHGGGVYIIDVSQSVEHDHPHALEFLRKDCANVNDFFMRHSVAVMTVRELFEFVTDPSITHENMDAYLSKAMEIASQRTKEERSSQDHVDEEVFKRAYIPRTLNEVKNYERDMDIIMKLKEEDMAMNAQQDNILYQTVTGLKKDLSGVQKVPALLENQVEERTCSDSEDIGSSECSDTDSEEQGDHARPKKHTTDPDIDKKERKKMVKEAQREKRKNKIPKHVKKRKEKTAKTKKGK
UniProt Q13546: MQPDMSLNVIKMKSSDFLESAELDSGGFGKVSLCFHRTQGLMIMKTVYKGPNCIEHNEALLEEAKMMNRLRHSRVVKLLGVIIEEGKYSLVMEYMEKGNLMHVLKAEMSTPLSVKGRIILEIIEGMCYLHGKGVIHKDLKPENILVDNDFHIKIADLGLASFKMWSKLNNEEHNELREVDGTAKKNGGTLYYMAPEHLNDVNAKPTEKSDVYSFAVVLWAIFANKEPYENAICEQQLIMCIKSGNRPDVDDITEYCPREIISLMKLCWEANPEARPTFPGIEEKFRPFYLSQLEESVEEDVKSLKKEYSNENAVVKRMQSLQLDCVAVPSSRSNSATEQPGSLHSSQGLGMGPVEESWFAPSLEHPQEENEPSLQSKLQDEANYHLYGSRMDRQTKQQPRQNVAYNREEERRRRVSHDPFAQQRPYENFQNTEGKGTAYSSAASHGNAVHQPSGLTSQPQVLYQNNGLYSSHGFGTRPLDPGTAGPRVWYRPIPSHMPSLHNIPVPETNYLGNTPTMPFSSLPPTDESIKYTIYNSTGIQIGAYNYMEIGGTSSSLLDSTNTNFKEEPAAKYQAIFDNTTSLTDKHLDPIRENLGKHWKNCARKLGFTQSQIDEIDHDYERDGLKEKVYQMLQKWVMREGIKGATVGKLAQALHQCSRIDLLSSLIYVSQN
UniProt Q01974, whole entry: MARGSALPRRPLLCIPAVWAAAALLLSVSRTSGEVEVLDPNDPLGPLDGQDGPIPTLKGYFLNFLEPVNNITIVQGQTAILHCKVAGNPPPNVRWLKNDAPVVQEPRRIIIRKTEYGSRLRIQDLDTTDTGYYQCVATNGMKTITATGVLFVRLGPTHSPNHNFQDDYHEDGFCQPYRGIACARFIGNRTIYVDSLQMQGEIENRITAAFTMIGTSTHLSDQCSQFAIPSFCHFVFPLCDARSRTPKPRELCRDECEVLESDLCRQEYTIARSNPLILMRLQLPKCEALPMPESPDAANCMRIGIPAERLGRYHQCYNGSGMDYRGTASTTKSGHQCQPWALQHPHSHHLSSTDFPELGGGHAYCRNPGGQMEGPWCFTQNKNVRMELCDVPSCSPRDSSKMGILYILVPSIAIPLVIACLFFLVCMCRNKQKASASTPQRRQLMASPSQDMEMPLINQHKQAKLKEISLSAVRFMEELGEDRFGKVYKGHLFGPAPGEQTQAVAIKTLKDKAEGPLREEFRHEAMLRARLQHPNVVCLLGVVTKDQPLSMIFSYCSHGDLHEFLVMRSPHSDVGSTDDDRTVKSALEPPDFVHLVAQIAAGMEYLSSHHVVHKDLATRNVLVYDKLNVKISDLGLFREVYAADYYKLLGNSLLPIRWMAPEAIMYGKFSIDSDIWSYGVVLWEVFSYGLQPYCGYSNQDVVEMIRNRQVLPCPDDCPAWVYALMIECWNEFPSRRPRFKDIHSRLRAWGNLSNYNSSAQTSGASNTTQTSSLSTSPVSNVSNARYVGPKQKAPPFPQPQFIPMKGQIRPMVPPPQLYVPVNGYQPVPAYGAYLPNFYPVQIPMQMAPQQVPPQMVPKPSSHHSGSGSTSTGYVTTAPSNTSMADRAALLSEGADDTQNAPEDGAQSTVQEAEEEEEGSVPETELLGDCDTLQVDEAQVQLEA
UniProt Q15418, whole entry: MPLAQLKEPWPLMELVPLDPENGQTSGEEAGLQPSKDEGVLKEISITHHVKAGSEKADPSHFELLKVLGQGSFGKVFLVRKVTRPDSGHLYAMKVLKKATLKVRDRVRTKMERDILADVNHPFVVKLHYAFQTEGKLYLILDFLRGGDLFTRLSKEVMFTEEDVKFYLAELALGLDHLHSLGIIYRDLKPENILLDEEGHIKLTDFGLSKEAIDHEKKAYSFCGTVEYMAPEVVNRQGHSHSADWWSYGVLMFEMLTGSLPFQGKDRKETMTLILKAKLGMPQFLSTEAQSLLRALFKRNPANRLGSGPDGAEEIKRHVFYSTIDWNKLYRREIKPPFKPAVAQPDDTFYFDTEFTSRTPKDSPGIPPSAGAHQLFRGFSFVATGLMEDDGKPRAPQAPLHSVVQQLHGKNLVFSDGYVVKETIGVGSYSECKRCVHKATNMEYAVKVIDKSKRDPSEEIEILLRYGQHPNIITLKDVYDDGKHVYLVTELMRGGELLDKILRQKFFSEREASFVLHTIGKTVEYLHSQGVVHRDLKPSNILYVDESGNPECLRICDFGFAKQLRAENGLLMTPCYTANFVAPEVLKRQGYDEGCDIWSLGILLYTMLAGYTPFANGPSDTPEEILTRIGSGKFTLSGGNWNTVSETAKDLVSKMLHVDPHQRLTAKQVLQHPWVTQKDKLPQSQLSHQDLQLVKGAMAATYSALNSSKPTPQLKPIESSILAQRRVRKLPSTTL
UniProt Q9NYA1, whole entry: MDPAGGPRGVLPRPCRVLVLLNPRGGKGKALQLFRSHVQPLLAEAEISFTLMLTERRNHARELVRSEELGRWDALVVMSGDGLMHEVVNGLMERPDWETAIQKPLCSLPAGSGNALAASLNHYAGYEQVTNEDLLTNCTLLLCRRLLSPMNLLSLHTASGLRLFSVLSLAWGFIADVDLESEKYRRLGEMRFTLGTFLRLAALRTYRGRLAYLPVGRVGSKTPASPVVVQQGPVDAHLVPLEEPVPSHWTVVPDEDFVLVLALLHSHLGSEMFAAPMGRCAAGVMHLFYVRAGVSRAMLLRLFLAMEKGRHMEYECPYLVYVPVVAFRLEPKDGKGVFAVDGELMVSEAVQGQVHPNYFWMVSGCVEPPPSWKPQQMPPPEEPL
UniProt Q9Y6E0: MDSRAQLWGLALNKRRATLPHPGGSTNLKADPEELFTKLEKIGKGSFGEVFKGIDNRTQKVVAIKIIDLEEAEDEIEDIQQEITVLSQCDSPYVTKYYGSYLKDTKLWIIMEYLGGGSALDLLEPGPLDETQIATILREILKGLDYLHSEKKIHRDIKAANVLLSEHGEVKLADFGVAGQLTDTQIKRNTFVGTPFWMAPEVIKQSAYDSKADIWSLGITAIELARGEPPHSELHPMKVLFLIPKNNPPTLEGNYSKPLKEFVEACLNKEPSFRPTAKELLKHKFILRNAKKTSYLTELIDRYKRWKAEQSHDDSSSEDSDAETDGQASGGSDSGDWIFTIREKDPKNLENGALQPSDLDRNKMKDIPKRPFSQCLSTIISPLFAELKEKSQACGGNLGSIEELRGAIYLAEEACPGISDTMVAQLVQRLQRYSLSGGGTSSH
UniProt Q15208: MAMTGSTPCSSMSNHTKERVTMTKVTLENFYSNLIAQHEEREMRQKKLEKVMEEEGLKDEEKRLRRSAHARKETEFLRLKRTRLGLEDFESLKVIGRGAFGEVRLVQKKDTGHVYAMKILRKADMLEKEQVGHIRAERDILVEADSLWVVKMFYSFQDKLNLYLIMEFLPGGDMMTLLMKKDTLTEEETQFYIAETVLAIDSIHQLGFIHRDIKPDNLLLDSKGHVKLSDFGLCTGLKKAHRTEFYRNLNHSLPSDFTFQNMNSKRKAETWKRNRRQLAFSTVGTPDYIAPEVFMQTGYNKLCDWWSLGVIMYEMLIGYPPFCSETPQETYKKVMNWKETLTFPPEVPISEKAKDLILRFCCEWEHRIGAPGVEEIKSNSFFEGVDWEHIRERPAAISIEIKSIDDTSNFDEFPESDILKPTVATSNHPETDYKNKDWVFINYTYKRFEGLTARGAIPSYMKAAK
UniProt P29597: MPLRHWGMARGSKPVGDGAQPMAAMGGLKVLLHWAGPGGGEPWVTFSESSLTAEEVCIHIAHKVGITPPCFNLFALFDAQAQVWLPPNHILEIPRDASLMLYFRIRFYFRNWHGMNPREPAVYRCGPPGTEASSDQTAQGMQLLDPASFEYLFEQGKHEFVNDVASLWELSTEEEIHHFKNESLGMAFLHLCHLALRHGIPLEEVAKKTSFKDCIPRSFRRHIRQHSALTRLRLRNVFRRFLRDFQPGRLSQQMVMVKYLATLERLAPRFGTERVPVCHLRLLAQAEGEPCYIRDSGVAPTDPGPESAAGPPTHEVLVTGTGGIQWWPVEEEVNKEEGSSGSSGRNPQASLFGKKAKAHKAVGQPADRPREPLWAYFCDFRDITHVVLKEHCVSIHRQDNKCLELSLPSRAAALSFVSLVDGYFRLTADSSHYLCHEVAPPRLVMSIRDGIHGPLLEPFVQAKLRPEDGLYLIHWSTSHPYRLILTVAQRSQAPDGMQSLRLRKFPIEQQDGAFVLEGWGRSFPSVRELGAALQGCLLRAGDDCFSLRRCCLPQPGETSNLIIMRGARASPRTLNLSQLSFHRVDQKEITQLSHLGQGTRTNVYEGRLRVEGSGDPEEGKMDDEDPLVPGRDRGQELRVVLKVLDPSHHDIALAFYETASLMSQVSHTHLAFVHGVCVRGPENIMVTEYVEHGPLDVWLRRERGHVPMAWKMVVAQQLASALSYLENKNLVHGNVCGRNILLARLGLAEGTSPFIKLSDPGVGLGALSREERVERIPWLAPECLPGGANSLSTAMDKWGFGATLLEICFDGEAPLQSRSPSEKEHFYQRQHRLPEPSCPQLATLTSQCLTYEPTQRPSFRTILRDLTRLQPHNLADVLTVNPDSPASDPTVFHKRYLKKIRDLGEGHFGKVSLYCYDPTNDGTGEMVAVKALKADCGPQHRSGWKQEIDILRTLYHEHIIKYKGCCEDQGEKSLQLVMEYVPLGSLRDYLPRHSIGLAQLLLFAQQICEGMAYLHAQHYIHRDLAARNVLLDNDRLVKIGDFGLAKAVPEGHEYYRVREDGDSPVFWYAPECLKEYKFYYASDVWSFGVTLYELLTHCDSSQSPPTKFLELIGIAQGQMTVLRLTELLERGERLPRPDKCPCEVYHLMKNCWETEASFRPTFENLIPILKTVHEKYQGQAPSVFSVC
UniProt Q6PHR2: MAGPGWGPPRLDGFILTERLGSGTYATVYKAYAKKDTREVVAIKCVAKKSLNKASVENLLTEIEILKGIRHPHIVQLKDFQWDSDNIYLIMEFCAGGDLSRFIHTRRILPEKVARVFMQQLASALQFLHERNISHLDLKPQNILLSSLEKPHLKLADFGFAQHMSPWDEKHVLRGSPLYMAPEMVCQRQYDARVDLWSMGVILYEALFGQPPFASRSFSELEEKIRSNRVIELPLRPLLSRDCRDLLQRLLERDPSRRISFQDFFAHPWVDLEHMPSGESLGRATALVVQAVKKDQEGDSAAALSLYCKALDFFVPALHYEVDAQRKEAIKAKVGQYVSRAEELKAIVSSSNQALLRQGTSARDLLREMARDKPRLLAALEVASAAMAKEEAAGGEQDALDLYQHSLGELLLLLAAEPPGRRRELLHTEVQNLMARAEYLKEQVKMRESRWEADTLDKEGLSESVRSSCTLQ

SMILES | number of time points (PRKCA) | number of time points (PTK2) | number of time points (PTK2B) | number of time points (RAF1) | number of time points [1] | number of time points (RET) | number of time points [2] | number of time points (RIOK1) | number of time points (RIPK1) | number of time points (RIPK2) | number of time points (ROR2) | number of time points (RPS6KA1) | number of time points (SPHK1) | number of time points (SRC) | number of time points (STK24) | number of time points (STK38) | number of time points (SYK) | number of time points (TEC) | number of time points (TYK2) | number of time points (ULK3)
O=c1[nH]c(C2CCCN2)nc2c1oc1ccc(Cl)cc12 (stereo not given) [XL413 (hydrochloride)] (10 µM) | 0 | 0 | 0 | 0 | 0 | 0 | 0 | 0 | 0 | 0 | 0 | 0 | 0 | 0 | 0 | 0 | 0 | 0 | 0 | 0
Cc1cnc(-c2ccc(-c3ccc(NC(=O)Nc4cccc(C(F)(F)F)c4)cc3F)c3c2C(=O)NC3)[nH]1 (10 µM) | 0 | 4 | 0 | 0 | 3 | 0 | 0 | 1 | 2 | 2 | 0 | 0 | 0 | 0 | 0 | 1 | 0 | 0 | 2 | 2
c1ccc(-c2nc3c(c(-n4ccc5cnccc54)n2)CCC3)nc1 (10 µM) | 0 | 0 | 0 | 0 | 0 | 0 | 0 | 0 | 0 | 0 | 0 | 0 | 0 | 0 | 0 | 0 | 0 | 0 | 0 | 0
CCCNC(=O)Nc1ccc(Oc2ncnc3cc(OC)c(OC)cc23)cc1Cl (2.5 µM) | 0 | 0 | 0 | 0 | 0 | 0 | 0 | 0 | 0 | 0 | 0 | 0 | 0 | 0 | 0 | 0 | 0 | 0 | 0 | 0
CCn1c(=O)c(-c2cc[nH]n2)cc2c(C)nc(N)nc21 [Voxtalisib] (10 µM) | 0 | 2 | 0 | 0 | 0 | 0 | 0 | 0 | 2 | 0 | 0 | 0 | 0 | 0 | 0 | 0 | 0 | 0 | 0 | 0
Cc1ccc2c(Nc3cccc(Cl)c3F)nccc2c1NC(=O)c1csc2c(N)ncnc12 [Belvarafenib] (10 µM) | 0 | 0 | 0 | 0 | 0 | 0 | 0 | 0 | 0 | 0 | 0 | 0 | 0 | 0 | 0 | 0 | 0 | 0 | 0 | 0
CN(C)c1nc2c(Br)c(Br)c(Br)c(Br)c2[nH]1 (10 µM) | 0 | 0 | 0 | 0 | 0 | 0 | 0 | 0 | 0 | 0 | 0 | 0 | 0 | 0 | 0 | 0 | 0 | 0 | 0 | 0
CC(C)(O)[C@H]1CC[C@H](Nc2ccc3ncc(-c4cccc(C(F)(F)F)c4)n3n2)CC1 (10 µM) | 0 | 2 | 0 | 0 | 0 | 0 | 0 | 0 | 0 | 0 | 0 | 0 | 0 | 0 | 0 | 0 | 0 | 0 | 0 | 0
Cn1cc(C2=C(c3cn(CCCSC(=N)N)c4ccccc34)C(=O)NC2=O)c2ccccc21 [Ro 31-8220 (mesylate)] (2.5 µM) | 0 | 0 | 0 | 0 | 3 | 0 | 0 | 0 | 2 | 0 | 0 | 0 | 0 | 0 | 0 | 0 | 0 | 0 | 0 | 0
Cn1cc(-c2cnc3cnn(S(=O)(=O)c4cnc5ccc(-c6cnn(C)c6)cn45)c3c2)cn1 [Glumetinib] (10 µM) | 0 | 0 | 0 | 0 | 0 | 0 | 0 | 0 | 0 | 0 | 0 | 0 | 0 | 0 | 0 | 0 | 0 | 0 | 0 | 0
COc1c(Nc2cc(C)[nH]n2)nc(Sc2ccc(S(=O)(=O)Cc3cccc([N+](=O)[O-])c3F)cc2F)nc1N1CCCCC1 [Centrinone-B] (2.5 µM) | 0 | 0 | 0 | 0 | 0 | 0 | 0 | 0 | 0 | 0 | 0 | 0 | 4 | 0 | 0 | 0 | 0 | 0 | 0 | 0
CC(C)=CC(=O)O[C@H]1Cc2cc3ccc(=O)oc3cc2OC1(C)C [Decursin] (10 µM) | 0 | 0 | 0 | 0 | 0 | 0 | 0 | 0 | 0 | 0 | 0 | 0 | 0 | 0 | 0 | 0 | 0 | 0 | 0 | 0
C[C@H](NC(=O)[C@H]1NCC[C@@H]1O)c1ccc(-c2noc(CCC3CCCC3)n2)cc1 (10 µM) | 0 | 0 | 0 | 0 | 0 | 0 | 0 | 0 | 0 | 0 | 0 | 0 | 0 | 0 | 0 | 0 | 0 | 0 | 0 | 0

Reference: the supplement of paper PMC12823440, “Inhibitors supercharge kinase turnover through native proteolytic circuits” (Nature, 2025)
